Test results from the supplement of paper PMC7858590.
Values joined by “and” are separate entries in the source; they are usually repeats but may differ in a detail not shown here. Identical values can stand only once. ± gives the standard deviation of the averaged measurements. Whole data set: some 3,800 compounds, median “cell shape (eccentricity) Z-score vs DMSO control” near 1.1, cut for the lowest 2% near -4.7. The list shows a part of the results.

What follows are molecules tested on human monocyte-derived macrophages (M0) (assay: cell shape (eccentricity) Z-score vs DMSO control; higher = more elongated, M2-like morphology). Conditions: 20 µM; 24 h; macrophage state: M0 (M-CSF).

Compound | cell shape (Z-score)
O=C(C=Cc1ccccc1)NC(NC(=S)Nc1cccc2cccnc12)C(Cl)(Cl)Cl (stereo not given) | 1.46
C=C[C@H]1C[N@@]2CC[C@H]1C[C@@H]2[C@@H](O)c1ccnc2ccc(OC)cc12 | 1.81
Cc1cc2nc(NCCCO)n(CC(=O)c3cc(C(C)(C)C)c(O)c(C(C)(C)C)c3)c2cc1C | 3.67
O=C1NC(=O)c2cc(Nc3ccc(F)cc3)c(Nc3ccc(F)cc3)cc21 | 1.81
COc1ccc2c(c1OC)CN(C)CCc1cc3c(cc1C(=O)C2)OCO3 | 6.66
COc1ccc2c(c1)O[C@H]1c3ccc(O)cc3OC[C@@H]21 | 1.83
CC(C)NNC(=O)c1ccncc1 | 0.00576
COCCCOc1ccnc(CS(=O)c2nc3ccccc3[nH]2)c1C (stereo not given) | -6.29
O=C(NCC1CCCCN1)c1cc(OCC(F)(F)F)ccc1OCC(F)(F)F (stereo not given) | 1.95
Cc1c(N(C)CS(=O)(=O)O)c(=O)n(-c2ccccc2)n1C | -0.614
OCc1cc2c([nH]c3ccccc32)c(C(O)CO)n1 (stereo not given) | 3.05
CCCCCN(CCCCC)C(=O)C(CCC(=O)O)NC(=O)c1ccc(Cl)c(Cl)c1 (stereo not given) | 0.899
CC(=O)NNC(=O)N1Cc2ccccc2Oc2ccc(Cl)cc21 | 2.13
Cn1c([N+](=O)[O-])cnc1COC(N)=O | 5.6
CC1(COc2ccc(CC3SC(=O)NC3=O)cc2)CCCCC1 (stereo not given) | 1.51
COc1cc2ccc(=O)oc2c(CC=C(C)C)c1OC | 1.91
COc1cc(O)c2c(c1)C(=O)c1cc(C)cc(O)c1C2=O | 2.65
Cc1ccc(/C(=C\CN2CCCC2)c2ccccn2)cc1 | 1.6
O=c1oc2c(O)c(O)cc3c(=O)oc4c(O)c(O)cc1c4c23 | -0.198
O=C(c1cc(Cc2n[nH]c(=O)c3ccccc23)ccc1F)N1CCN(C(=O)C2CC2)CC1 | 2.18
N[C@@H](C(=O)O)C1=CCC=CC1 | 3.02
COc1ccc(C2(CNC(=O)c3ccc(NC(=O)c4ccco4)cc3)CCOCC2)cc1 | 5.64
C/C=C1\C(O[C@@H]2O[C@H](CO)[C@@H](O)[C@H](O)[C@H]2O)OC=C(C(=O)OC)C1CC(=O)OCC(O)c1ccc(O)c(O)c1 (stereo not given in full) | 0.603
O=c1cc(-c2ccc(O)cc2)oc2cc(O)ccc12 | 6.38
C[C@]12CCC3c4ccc(OC(=O)c5ccccc5)cc4CCC3C1CCC2=O (stereo not given in full) | 1.95

Compound | cell shape (Z-score)
C[C@H](CS)C(=O)N1CCC[C@H]1C(=O)O | -0.0396
OC[C@H]1O[C@@H](OCCc2ccccc2)[C@H](O)[C@@H](O)[C@@H]1O | 4.65
C/C=C(\C)C(=O)OC(C)(C)C1Cc2cc3ccc(=O)oc3cc2O1 (stereo not given) | -0.504 ± 0.21
C[C@@]1(C(=O)Nc2ccc(F)nc2)CCCN1c1nc(Nc2cc(C3CC3)n[nH]2)c2cccn2n1 | 5.78
CC1CC[C@]2(C(=O)OC3OC(COC4OC(CO)C(O)C(O)C4O)C(O)C(O)C3O)CC[C@]3(C(=O)O)C(=CCC4[C@@]5(C)CC[C@H](OC6OC(C)C(O)C(O)C6O)C(C)(C)C5CC[C@]43C)C2C1C (stereo not given in full) | 2.48
OC1(c2ccc(Cl)cc2)CCN(Cc2c[nH]c3ccccc23)CC1 | 1.03
C=CC1C(=C)CCC2C1CCC1C(C)(C(=O)O)CCCC21C (stereo not given) | 1.19 ± 1.4
CC1Cc2ccccc2N1NC(=O)c1ccc(Cl)c(S(N)(=O)=O)c1 (stereo not given) | 0.275
CCN1C(=O)C=CC1=O | 0.508
COc1cc(O)cc(OC)c1OC | 0.967
COc1ccc([C@@H]2Sc3ccccc3N(CCN(C)C)C(=O)[C@@H]2OC(C)=O)cc1 | 1.41 and 1.58
C=C(COC(=O)C(C)C)C1Oc2cc(C(C)=O)ccc2C1OC(=O)C(C)C (stereo not given) | 1.56
COc1ccc(/C=C/C(=O)CC(=O)/C=C/c2cccc(O)c2OC)cc1O | 0.215
COc1cc2nc(N3CCN(C(=O)C4CCCO4)CC3)nc(N)c2cc1OC (stereo not given) | 0.209
COc1cc2c(c3oc(-c4ccccc4)cc(=O)c13)C=CC(C)(C)O2 | 0.908
O=C1C[C@@H](c2ccc(O)cc2)Oc2cc(O)cc(O)c21 | 1.5
Cc1ncc([N+](=O)[O-])n1CCO | 2.83
CC1CCN(CC[C@H]2CCCN2S(=O)(=O)c2cccc(O)c2)CC1 | 1.23
O=c1cc(-c2ccccc2)oc2cc(O)c(O)c(O)c12 | 3.42
COc1cc(C2c3cc(O)c(OC)cc3CC(CO)C2CO[C@@H]2O[C@H](CO)[C@@H](O)[C@H](O)[C@H]2O)ccc1O (stereo not given in full) | 2.04
CC(=O)c1c(O)cc(O[C@@H]2O[C@H](CO)[C@@H](O)[C@H](O)[C@H]2O)cc1O | 0.518
COc1cc2c(cc1OC)Cc1cc(OC)c(OC)cc1Cc1cc(OC)c(OC)cc1C2 | 1.31
C=C(C(=O)O)C1CCC2(C)CCC(=O)C(C)=C2C1 (stereo not given) | 0.463
C[C@H]1O[C@@H](O[C@H]2CC[C@@]3(C)C(CC[C@]4(C)C3CC=C3C5CC(C)(C)CC[C@]5(C(=O)O)CC[C@]34C(=O)O)C2(C)C)[C@H](O)[C@@H](O)[C@@H]1O (stereo not given in full) | 0.659
CC1C(=O)C(=O)[C@@H]2O[C@@H]2C1=O (stereo not given in full) | 5.29

Compound | cell shape (Z-score)
Oc1c(Cl)cc(Cl)c2cccnc12 | 1.98
C[C@@H]1O[C@@H](OC[C@H]2OC(Oc3c(-c4ccc(OCCO)c(OCCO)c4)oc4cc(OCCO)cc(O)c4c3=O)[C@H](O)[C@@H](O)[C@@H]2O)[C@H](O)[C@H](O)[C@H]1O (stereo not given in full) | -2.65
COC1=CC(c2cc3ccccc3[nH]2)=N/C1=C\c1[nH]c(C)cc1C | 4.32
CC(Cc1cccc(C(F)(F)F)c1)NCCOC(=O)c1ccccc1 (stereo not given) | -2.44
COc1cc2ncnc(Nc3cccc(Br)c3)c2cc1OC | 3.49
COc1ccc(Cl)cc1NC(=O)Nc1cc(C)nc2ccccc12 | 1.69
CN(C)CCC(c1ccc(Br)cc1)c1ccccn1 (stereo not given) | 2.08
O=C(O)CCNC(=O)c1ccccc1 | 2.44
Cc1cc(O)c(C=O)c2c1C(=O)Oc1c(C)c(O)c3c(c1O2)C(O)OC3=O (stereo not given) | 1.11
CNC(=O)C1OC(n2cnc3c(NCc4cccc(I)c4)nc(Cl)nc32)C(O)C1O (stereo not given) | 3.88
Cn1cc[nH]c1=S | 1.13
Cc1cnc(C(=O)NCCc2ccc(S(=O)(=O)NC(=O)NC3CCCCC3)cc2)cn1 | 1.9
CC(=O)OC[C@H]1O[C@@H](Oc2c(-c3ccc(O)c(O)c3)oc3cc(O)cc(O)c3c2=O)[C@H](O)[C@@H](O)[C@@H]1O | 2.8
CCC(=O)OCC(=O)[C@@]1(OC(=O)CC)[C@@H](C)CC2C3CCC4=CC(=O)C=C[C@]4(C)C3(F)[C@@H](O)C[C@@]21C (stereo not given in full) | -1.64
CCOC(=O)[C@H]1O[C@@H]1C(=O)N[C@@H](CC(C)C)C(=O)NCCC(C)C | -2.63
C[C@H]1CC2C3CCC4=CC(=O)C=C[C@]4(C)[C@@]3(F)[C@@H](O)C[C@]2(C)[C@@]1(O)C(=O)COP(=O)(O)O (stereo not given in full) | -3.46
CCCC(O)/C(=C/C1=C(C(=O)CC(CC(=O)O)OC(N)=O)C(=O)c2cccc(O)c2C1=O)CC(C(=O)O)[N+](C)(C)C (stereo not given) | -1.12
Nc1ncnc2[nH]nc(Nc3ccc(F)cc3)c12 | 8.81
O=C1c2ccc(Nc3ccc(F)cc3F)cc2CCc2ccc(OC[C@H](O)CO)cc21 | -6.5
C=C(C(=O)O)C(CCCCC(C)O)C(=O)O (stereo not given) | 3.09
COc1cc(C)c2c(=O)cc(-c3ccccc3)oc2c1 | 1.41
O=C(Nc1ccccc1)NC1CC(C(=O)O)Nc2cc(Cl)cc(Cl)c21 (stereo not given) | 1.59
CC(C)NCC(O)COc1ccc(CC(N)=O)cc1 (stereo not given) | 0.881
Brc1cccc(Nc2ncnc3cc4[nH]cnc4cc23)c1 | 1.28
COc1ccc(-c2coc3cc(O)ccc3c2=O)c(OC)c1 | 3.35

Compound | cell shape (Z-score)
NC(=O)[C@H]1CCCc2c1[nH]c1ccc(Cl)cc21 | 5.27
Sc1ncnc2[nH]ncc12 | 0.063
CCCCCCC(=O)OC1OC(CO)C(O)C2OCC(C(=O)O)COC12 (stereo not given) | -0.258
CC(=O)[C@H]1CCC2C3CC=C4C[C@@H](OC(=O)CCC(=O)O)CC[C@]4(C)C3CC[C@@]21C (stereo not given in full) | -1.65
CC(=O)Nc1ccc(S(=O)(=O)c2ccc(NC(C)=O)cc2)cc1 | 3.27
COC(=O)Nc1nc2cc(Sc3ccccc3)ccc2[nH]1 | -2.59 ± 3.9
O=c1c(O)c(-c2cc(O)c(O)c(O)c2)oc2cc(O)cc(O)c12 | 3.98
C[C@H]1[C@H](C)CC[C@]2(C(=O)O)CC[C@]3(C(=O)O)C(=CCC4[C@@]5(C)CC[C@H](O[C@@H]6O[C@@H](C)[C@H](O)[C@@H](O)[C@H]6O)C(C)(C)C5CC[C@]43C)[C@H]12 (stereo not given in full) | 0.924 ± 0.21
N#Cc1ccccc1OCC(O)CNCCNC(=O)Nc1ccccc1 (stereo not given) | -2.75
COc1cc2c(c(OC)c1)C(=O)OC(C)C2 (stereo not given) | -2.38
CC(C)N1c2ccccc2C(c2ccc(F)cc2)C1/C=C/C(O)CC(O)CC(=O)O (stereo not given) | 2.93 ± 4.8
CN1CCN(C2=Nc3cc(Cl)ccc3Nc3ccccc32)CC1 | 2.44
CO/N=C1\CN(c2nc3c(cc2F)c(=O)c(C(=O)O)cn3C2CC2)CC1CN (stereo not given) | 0.169
O=C(O)CC(CCc1ccccc1)OC1OC(CO)C(O)C(O)C1O (stereo not given) | 1.75
CS(=O)(=O)c1ccc(-c2nc(-c3ccc(F)cc3)c(-c3ccncc3)[nH]2)cc1 | 1.46
C=C1CCCC(C)(C(=O)OC)C1CC/C(C)=C/CCC1=CC(=O)OC1 (stereo not given) | 6.46
C=CCc1ccccc1OCC(O)CNC(C)C (stereo not given) | -0.655
CC1CCCC[C@H]2C(=O)C=C[C@H](O)[C@@H]2CC(=O)O1 (stereo not given in full) | 0.141
O=C(O)Cc1cc2ccccc2nc1C(=O)O | -0.316
CCC(C)n1ncn(-c2ccc(N3CCN(c4ccc(OCC5COC(Cn6cncn6)(c6ccc(Cl)cc6Cl)O5)cc4)CC3)cc2)c1=O (stereo not given) | -0.941
CN1CCN(CCc2ccc(Cl)c(Cl)c2)CC1 | 2.1
CC1(C)C=Cc2cc3ccc(=O)oc3cc2O1 | 2.39
CCCNC(=O)NS(=O)(=O)c1ccc(Cl)cc1 | 3.2
CCC(C)C(O)C(C)(O)/C=C/C1=CC2=C(Cl)C(=O)C(C)(O)C(O)C2CO1 (stereo not given) | -2.31
C[C@H]1O[C@@H](O[C@H]2[C@@H](O)C[C@H](O[C@H]3[C@@H](O)C[C@H](O[C@H]4CC[C@]5(C)C6C[C@@H](O)[C@]7(C)[C@@H](C8=CC(=O)OC8)CC[C@]7(O)C6CC[C@@H]5C4)O[C@@H]3C)O[C@@H]2C)C[C@H](O)[C@@H]1O (stereo not given in full) | -1.93
